Results are given in words; binding and its absence hold for the method and conditions named. Some results given as binding are weak or reduced against the parent protein; the word gives no strength.
Legend:
[1] = biological target: epidermal growth factor receptor (EGFR) (human (endogenous in A-431, DU-145, U-87 MG, PC-3)) (UniProt P00533); assay: radioligand binding; binding specificity test on living EGFR-expressing cells (A-431, DU-145, U-87 MG, PC-3); 5 nM radiolabeled DARPin, 1 h at 37 °C; control dishes pre-saturated for 30 min with 100-fold molar excess of unlabeled (HE)3-E01 or cetuximab; cell-associated activity by gamma counter; only the binder …
[2] = biological target: epidermal growth factor receptor (EGFR) (human (endogenous in A-431, DU-145, U-87 MG, PC-3)) (UniProt P00533); assay: radioligand binding; cellular processing on A-431 cells, continuous incubation with 5 nM radiolabeled DARPin at 37 °C for 1, 2, 4, 6 and 24 h; acid wash (0.2 M glycine, 4 M urea, pH 2.0) to separate membrane-bound and internalized activity; only the binder purified
[3] = biological target: epidermal growth factor receptor (EGFR) (human (endogenous in A-431, DU-145, U-87 MG, PC-3)) (UniProt P00533); assay: radioligand binding; saturation assay on living A-431 cells; eight concentrations of radiolabeled protein 0.22 to 40 nM, 4 h at 4 °C; nonspecific binding with 50-fold molar excess of unlabeled (HE)3-E01; nonlinear regression; only the binder purified

Row | binding [1] | binding [2] | binding [3] | Binder
1 | binds | binds |  | [^99mTc]Tc-(HE)3-E01 (designed binder, [^99mTc]Tc(CO)3^+ with the (HE)3 tag as a chelator at the N-terminus, DARPin E01 with the N-terminal (HE)3 tag; also called DARPin (HE)3-E01 labeled with [^99mTc]Tc(CO)3; technetium-labeled variant; source: E. coli, purified; labeled with [^99mTc]Tc(CO)3, isolated on NAP-5 size-exclusion column; not shown: (HE)3, N-terminal, kept) MRGSHEHEHEGSDLGKKLLEAARAGQDDEVRILMANGADVNADDTWGWTPLHLAAYQGHLEIVEVLLKNGADVNAYDYIGWTPLHLAADGHLEIVEVLLKNGADVNASDYIGDTPLHLAAHNGHLEIVEVLLKHGADVNAQDKFGKTAFDISIDNGNEDLAEILQKLN
2 | binds |  | binds | DARPin (HE)3-E01 (unlabeled) (designed binder) MRGSHEHEHEGSDLGKKLLEAARAGQDDEVRILMANGADVNADDTWGWTPLHLAAYQGHLEIVEVLLKNGADVNAYDYIGWTPLHLAADGHLEIVEVLLKNGADVNASDYIGDTPLHLAAHNGHLEIVEVLLKHGADVNAQDKFGKTAFDISIDNGNEDLAEILQKLN
